Source: PubChem BioAssay AID2685 (National Center for Advancing Translational Sciences (NCATS), 2010)
The other results are listed elsewhere or left out. Shown are side measurements of this screen, not its main read-out; they come without a call. Most of these compounds were active or inconclusive in the main read-out, so they are no random draw. The note in brackets gives the kind of curve behind each potency; many fits are weak.

Experiment: qHTS Assay for Lipid Storage Modulators in Drosophila S3 Cells;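 on cell number change: cells counted by Cell Tracker Red CMTPX staining in the red channel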
Settings: BODIPY lipid droplet fluorescence, 18-24 h; for cell number change: measured here: cell count max response, cells fed with added oleic acid
Outline: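 Drosophila S3 cells loaded with oleic acid (400 uM, as added) and compounds at several concentrations; lipid droplets imaged by 488-nm laser-scanning cytometry, 500–530 nm intensity and object ratio to cell channel. Percent activity normalized to 20 uM Triacsin C.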

[1] = measured here: lipid fluorescence (Fed channel) AC50, cells fed with added oleic acid
[2] = measured here: cell number channel AC50, cells fed with added oleic acid

Structure (SMILES)	cell number change	AC50 [1]	AC50 [2]
Clc1ccc2c(NNc3ccccc3Cl)ccnc2c1	-3.22%	0.731 µM [falling, partial curve, poor fit]	
O=C(Nc1cccc(S(=O)(=O)N2CCCCC2)c1)c1cnccn1	27.9%		4.11 µM [rising, full curve, poor fit]
O=C1c2oc3ccc(Cl)cc3c(=O)c2C(c2cccc(Br)c2)N1CCO (stereo not drawn)	43%	16.4 µM [rising, partial curve]	23.1 µM [rising, single point]
O=C(c1cccc([N+](=O)[O-])c1)N1CCCC(C(=O)N2CCN(c3ccccc3)CC2)C1 (stereo not drawn)	-9.12%		
O=C1CC(NNc2ccccc2)C(=O)N1c1ccccc1 (stereo not drawn)	-2.66%		
CC(=O)N1c2ccc(S(=O)(=O)N3CCC(C(=O)NC4CCCCC4)CC3)cc2CC1C (stereo not drawn)		29.1 µM [rising, single point]	
Clc1ccc(-c2cn(-c3ccccc3)c3[n+]2CCS3)cc1	6.26%	0.103 µM [falling, full curve, poor fit]	
COc1ccc(Cl)cc1NC(=O)Nn1cnnc1	55.1%		29.1 µM [rising, single point]
O=C(CCC1CCCN(C(=O)c2ccoc2)C1)NCc1ccc(F)c(F)c1 (stereo not drawn)	-16.7%	0.0058 µM [falling, full curve, poor fit]	
NC(=O)c1ccccc1NC(=O)COc1ccc2c(c1)OCO2	8.56%	11.6 µM [rising, single point]	
COc1ccccc1C(=O)C1CCCN(C(=O)c2cccc(Cn3cccn3)c2)C1 (stereo not drawn)	-21.7%	0.00651 µM [falling, full curve, poor fit]	
CN(C)S(=O)(=O)c1cccc(-c2nn(-c3ccccc3)cc2/C=C2\SC(=S)NC2=O)c1	-22.1%	29.1 µM [falling, single point]	
O=C(Cn1cnc2ccccc2c1=O)c1ccc2ccccc2c1	57%	11.6 µM [rising, partial curve]	20.6 µM [rising, partial curve, poor fit]
NS(=O)(=O)c1cccc(NC(=O)c2cccc(Oc3ccccc3)c2)c1	34.3%	6.51 µM [falling, single point]	1.64 µM [rising, full curve]
CC(C(=O)Nc1ccc(C(=O)O)c(O)c1)N1C(=O)/C(=C\c2ccco2)SC1=S (stereo not drawn)	-17%	6.51 µM [falling, single point]	
CN(CC(=O)Nc1cccc(F)c1)C(=O)c1sccc1-c1ccccc1	-75%		1.3 µM [falling, partial curve]
O=C(Nc1ccccc1C(F)(F)F)N1CCN(c2ccc3nnc(-c4ccc(F)cc4)n3n2)CC1	-37.5%	0.651 µM [rising, partial curve]	23.1 µM [falling, partial curve]
CC(=O)NCCSc1ccc(S(=O)(=O)N2CCCC2)cn1	17.2%	0.13 µM [rising, full curve, poor fit]	
Cc1cc(N=Nc2ccc(C)c(N=Nc3cc(C)c(N)cc3N)c2)c(N)cc1N	12.9%	0.0164 µM [rising, full curve, poor fit]	

Structure (SMILES)	cell number change	AC50 [1]	AC50 [2]
CCOc1ccc(NC(=O)C2CC(=O)N(C(C)C)C2)cc1 (stereo not drawn)	-184%		23.1 µM [falling, partial curve]
CCn1c(CCCOc2ccc(Cl)cc2Cl)nnc1SCC(=O)Nc1cc(F)ccc1C	-27.8%	29.1 µM [falling, single point]	
CC(=O)NCCc1nc2cc(NS(=O)(=O)c3ccc(Cl)cc3)ccc2n1C			0.0517 µM [falling, full curve, poor fit]
CN1CC=C2C(C#N)=C(N)C(C#N)(C#N)C(CCc3ccccc3)C2C1 (stereo not drawn)	90.8%	29.1 µM [rising, single point]	29.1 µM [rising, single point]
CCOC(=O)N1CCN(C(=O)CCSCCc2ccncc2)CC1	-28.8%	29.1 µM [falling, single point]	
O=C(CC(=O)NC1CCCCC1)N/N=C/c1ccc(Cl)cc1	-21.1%	0.13 µM [falling, full curve, poor fit]	
O=C(COC(=O)C1C2CC3OC(=O)C1C3C2)Nc1ccc(Cl)cc1 (stereo not drawn)	22.6%		
CC(C)CCNc1nc(-c2ccco2)c2c(c1C#N)CCCC2	67.6%	6.51 µM [falling, single point]	
COC(=O)c1ccccc1N/C=C1\CCc2c(c(C)nn2-c2ccccn2)C1=O	131%	0.146 µM [rising, partial curve, poor fit]	
COc1ccc(C)cc1NC(=O)C1CCN(S(=O)(=O)c2c(C)noc2C)CC1	-60.7%		9.2 µM [falling, partial curve]
COc1cc(/C=C2/C(=O)c3cccc([N+](=O)[O-])c3C2=O)c(Br)cc1O	-36.2%	9.2 µM [falling, partial curve]	2.91 µM [falling, partial curve, poor fit]
CSc1ccc(/C=C(\NC(=O)c2ccco2)C(=O)N2CCCCC2)cc1	8.38%	23.1 µM [rising, single point]	
C/C(=N\N(Cc1ccccc1)c1ccccc1)c1ccncc1			0.116 µM [rising, partial curve, poor fit]
CCC(C)(C)c1ccc(OCC(=O)Nc2ccncc2)cc1	-46.3%		14.6 µM [falling, single point]
Cc1ccc(C2CC(c3ccccc3)=NN2C(=O)CSc2nnc(-c3ccc(Cl)cc3)o2)o1 (stereo not drawn)		1.03 µM [rising, full curve]	0.366 µM [rising, full curve, poor fit]
Cn1c(=O)[nH]c(=O)c2c1nc(Br)n2CCOc1ccccc1	-10.3%		
COc1ccc(-c2cc(C3CCNCC3)[nH]n2)cc1	0.519%	4.11 µM [rising, single point]	
COc1cc(CN(C(=S)NCC(=O)N2CCCC2)C2CCCC2)cc(OC)c1OC	15.4%		0.164 µM [falling, full curve, poor fit]

One compound at a time, from the list above.
`CCOc1ccc(NC(=O)C2CC(=O)N(C(C)C)C2)cc1` (stereo not drawn) is listed with cell number change: -184%; AC50 [2]: 23.1 µM [falling, partial curve]
`COc1ccc(-c2cc(C3CCNCC3)[nH]n2)cc1` is listed with cell number change: 0.519%; AC50 [1]: 4.11 µM [rising, single point]
